# Measurements published in PubChem BioAssay AID1347426 (Functional Genomics Laboratory (NCATS/FGL), 2020).
# Out of some 31,000 sequences screened, about 1,400 (4.5%) were called active.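 Rule for the calls: active = median seed-adjusted z-score above 1 or below -1; inactive = the rest.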 The list shows a part of the results.
# Experiment: Novel Modifiers of Survival Motor Neuron (SMN) Protein: Gene Identification via Genome-wide siRNA Screen;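 note: luminescence tracks full-length SMN protein made from the SMN2 reporter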
# Details: HEK293T SMN2-luciferase reporter, siRNA knockdown, 72 h; actives lie on both sides
# Outline: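 siRNA screen, 10418 genes ×3 siRNAs; 1 pmol/well, lipid reverse transfection into HEK293T SMN2-luc reporter line. 72 h, 37 °C, 5% CO2; ONE-Glo readout. Data: neg-ctrl normalized, log10, MAD; hit = MAD >1.0 or < -1.0.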
row,Sequence,median seed-adjusted z-score
1,GCCUUGUAAAAAUCAACUUTT against ZNF528,inactive: -0.0746
2,GCACGCUGGUUUCUGCUUGTT against TNFRSF6B,inactive: 0.0458
3,GCUUUAGAGUUCCAUAUGATT against PIK3CG,inactive: 0.576
4,CAUGCACGGAGAGCCCAAATT against RPUSD3,inactive: 0.303
5,GCCCUUCGAUGGUUUCGAUTT against NUAK1,inactive: -0.197
6,GGCGAAAUCCGAGAGACCATT against AP2S1,inactive: 0.146
7,GCACCAAGAAUAUCCGCUATT against SLC9A4,inactive: 0.693
8,GCAGUUCCGGAGACUCUUUTT against CAPNS1,inactive: 0.35
9,GGACCAUUUAAAGAUACUATT against CDH10,inactive: 0
10,GGAAGUACAGAUGCCCAUATT against LDLRAD2,inactive: -0.459
11,AGAUACUGGUAUUGCUCGATT against SNRPB,active: -3.17
12,GGAUGAAGAUAGCAUCAGATT against TP63,inactive: -0.129
13,GGACUUUUACACCACCUUUTT against NRXN2,inactive: -0.485
14,GCAUCACCUUCACGGGCAATT against SPON2,inactive: 0
15,GGCGAAGAAAUGUCCAUGATT against POMT1,inactive: 0.327
16,CAUGUUCACUGCUACCGAUTT against LPP,inactive: -0.103
17,AGCUACUAGUGGAGCAGAATT against BAT1,active: -1.49
18,AAUUCUACACUUUCCUAAATT against GPX3,inactive: 0.193
19,GUGACUCACUUAUUCAAGATT against PSMA6,inactive: -0.768
20,GAAAUAGACAUGAAGGUUATT against GUCY1B3,inactive: -0.19
21,UGCAGAACCAGUAUCCUGATT against GSC2,inactive: -0.0829
22,UCCAGACUCUGGUCACCAATT against CREB3L1,inactive: 0.708
23,GGACAAAGGUUCCUCAGGATT against ZFP41,inactive: 0

# Taken from above.
# Under median seed-adjusted z-score, GGAUGAAGAUAGCAUCAGATT against TP63 is listed with inactive: -0.129
# Under median seed-adjusted z-score, AAUUCUACACUUUCCUAAATT against GPX3 is listed with inactive: 0.193
# Under median seed-adjusted z-score, GCAUCACCUUCACGGGCAATT against SPON2 is listed with inactive: 0
# Under median seed-adjusted z-score, GCAGUUCCGGAGACUCUUUTT against CAPNS1 is listed with inactive: 0.35
# Under median seed-adjusted z-score, GCCUUGUAAAAAUCAACUUTT against ZNF528 is listed with inactive: -0.0746

# Next results follow:

row,Sequence,median seed-adjusted z-score
1,GAACAAACGGGAAUAUGAATT against UBE2A,inactive: 0.306
2,CACUACUUGGUAUUGAAUATT against SLC25A27,inactive: 0.0916
3,AGAAUACUAUGACCAGACATT against TNFRSF1B,inactive: -0.483
4,GAUCAUUGAGAACACGUAUTT against RNF121,inactive: -0.53
5,CCUUUACGUUCAAAUCACATT against ZNF268,inactive: 0.0358
6,GCCUUGACCUUGAAGACCATT against MCF2L2,inactive: -0.465
7,CGUUCACGUUGAAUAUGAATT against DDEF2,inactive: 0.438
8,GGUCAGCUGGUAUUAAGGATT against USP1,inactive: -0.564
9,GCCUACACCUCAGUCCUAATT against DPH5,inactive: 0
10,GAAUAUUGAAAGUUACAGATT against LRP12,inactive: 0.416
11,CAUCUUUCCCAAUGCCGAATT against EGR2,inactive: -0.37
12,GAAUCACUCUUUGACAACATT against SLC2A13,inactive: -0.0451
13,CCAUGGCAGUACCAACUAGTT against CREM,active: -2.37
14,GGCGGUAUAUCUCCAGUAATT against LRBA,inactive: 0.219
15,GCUACGUGGUGCCCUGUAATT against SOX14,inactive: -0.296
16,CAAAGGAAACCAACAAUAATT against BIRC5,inactive: 0.0236
17,GGAGGAAAAAUCAUACCAATT against UGT3A1,inactive: 0.864
18,GGCAUUAAAUUGGUGCGAATT against LNX2,inactive: 0
19,CUAUGUGAACAAUCGAAUATT against ATP10D,inactive: -0.35
20,ACUUAAACGUGUCCCAUGATT against DUSP28,inactive: 0
21,GACCAAGACCAAUGCAUAATT against HP,inactive: 0
22,GCUGUUCGGCUUCACCCUATT against WFDC2,inactive: -0.466
23,GUAGUACAAUUGUCAGACATT against KITLG,inactive: 0.119

row,Sequence,median seed-adjusted z-score
1,GGAUAAUUUUGCCUACCUUTT against GALNTL1,inactive: -0.234
2,GCAAGCCUAUAGUCAUUGATT against LGI1,inactive: -0.19
3,GCAACAGAAGAAUCCUGUATT against CTSL1,inactive: 0.378
4,GCUGUGAUAUGAUAGAUGUTT against RRAGD,inactive: 0.313
5,CCGUUGUUGUAAGAAGAAATT against MICA,inactive: -0.0635
6,GGAAGAUCCACACCCUAAATT against ZNF70,inactive: -0.558
7,GGAUCACUCUAUGAUUACATT against ZAK,inactive: -0.113
8,GGAUAUAAUGAGAUAUGUUTT against ETF1,active: -1.12
9,CCUUCUCACGCAGCACUGUTT against INHA,inactive: 0.231
10,ACAAUACCCUCAGACUGAATT against NMUR1,inactive: -0.265
11,CAAGGAUCUCUGUCGGGUATT against DNAJC13,inactive: -0.12
12,GUAUCUACGGAGCCCUCAATT against SLC25A37,inactive: -0.0821
13,GGAUAACAGGAAUCGAUCATT against SLC23A2,inactive: -0.0585
14,CUAUAUGGAUAUAACUUCUTT against TBX18,inactive: 0.424
15,CGUCAGAUCUGAACAAGAATT against CHST4,inactive: 0.349
16,CGACUCUGACACCACCAUATT against GOSR2,active: -1.25
17,GACUGUUCGUUUCCCAGAUTT against CHRNA7,inactive: -0.485
18,CCAAGUUAGAUAUUCCAAATT against ARPC1A,inactive: -0.433
19,GCUUUUAACCAUCCUGCAATT against ZNF486,inactive: 0.324
20,UGAACUACAUUGUACCCAUTT against BPI,inactive: 0
21,GCAAUUACCUAACUUCUGUTT against RNASE10,inactive: -0.109
22,GGAUUUACAGUGUGAGAUATT against ZNF573,inactive: -0.169
23,CUCUCAUCUUGGUUGGAAATT against RERG,inactive: 0.59
